# Assay results from PubChem BioAssay (NCATS).
# The other results are listed elsewhere or left out. The main result of the screen is listed elsewhere. These columns were measured beside it and carry no call. For part of these data: Compounds called inactive in the main read-out are mostly missing here. The note in brackets gives the kind of curve behind each potency; many fits are weak.
# Key:
# [1] = NCATS anti-infectives library activity on the primary C. elegans qHTS viability assay (AID 1745855); conditions: C. elegans worm area imaging
# Procedure, shortened: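 Titration-based screen in worms: eggs hatched overnight in M9, L1 larvae fed TOP10 capsules in S medium with compound, incubated 21 °C for 7 days; fluorescent objects gated by size and intensity at days 0, 3 and 7.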
# [2] = qHTS drug screen for cell cycle checkpoint inhibitors in PARPi-resistant BRCA-mutant ovarian cancer cell lines. (AID 1963452); conditions: PEO1/OlaR viability, CellTiter-Glo luminescence, 96 h
# Procedure, shortened: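 PEO1, PEO4 and PEO1/OlaR ovarian cancer cells, 600 per well, exposed 96 h at 37C to a dilution series. Viability read by CellTiter-Glo luminescence, normalized to DMSO and empty wells; activity summarized as Z-AUC.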
# [3] = qHTS for identification of novel therapeutic agents for treatment of microphthalmiaassociated transcription factor (MiT) renal cell carcinoma (RCC) (AID 1963991); conditions: CellTiter-Glo, 48 h; for z-score: stronger effect = lower value;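 for z-score: curves scaled with 100% = DMSO viability and 0% = empty wells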
# Procedure, shortened: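 UOK109/UOK124/UOK145 (TFE3 fusions, three partners); 500 cells/well; MIPE v4.0, 1912 cpds, 11 conc.; 48 h, 37 C; CellTiter-Glo, 15 min RT; lum. Norm.: DMSO 100%, empty 0%.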
# [4] = S16 Schwann cell PMP22 intronic element beta-lactamase assay (AID 624044); conditions: S16 rat Schwann cells, PMP22 element beta-lactamase FRET, 24 h; measured here: 460 nm blue channel
# Procedure, shortened: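 Beta-lactamase reporter under a PMP22 intronic regulatory element in stable S16 rat Schwann cells; 24 h compound exposure. 460 nm blue signal normalized between DMSO (0%) and potassium clavulanate, with 535 nm FRET tracking viability; curves classed by r2 and response.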
# [5] = day 7, measured here: worm number
# [6] = day 7, measured here: worm area, day 3
# [7] = day 7, measured here: worm number, day 3
# [8] = measured here: PEO1 parental viability
# [9] = TFE3-RCC viability, measured here: UOK145 cell viability
smiles,measurement,setting,value
C[n+]1cccc(C(=O)[O-])c1,AC50,[1]; [5],"25.8 µM [falling, single point]"
same,AC50,[1]; [6],"25.8 µM [falling, single point]"
Cc1cnc(NC(=O)c2cc(S(=O)(=O)N(C)C)ccc2N2CCCC2)s1,AC50,[1]; [5],"4.09 µM [falling, full curve, poor fit]"
same,AC50,[1]; [7],"2.9 µM [falling, partial curve, poor fit]"
CC(C)(CNC(=O)c1cccc(-c2noc(C(F)(F)F)n2)c1)c1coc(-c2ccccc2)n1,AC50,[1]; [5],"0.728 µM [falling, full curve, poor fit]"
same,AC50,[1]; [7],"2.3 µM [falling, partial curve, poor fit]"
Cc1cccc(/C=N/Nc2cc(N3CCOCC3)nc(OCCc3ccccn3)n2)c1,AC50,[1]; [5],"2.3 µM [falling, partial curve, poor fit]"
same,AC50,[1]; [6],"14.5 µM [falling, single point]"
same,AC50,[1]; [7],"25.8 µM [falling, single point]"
same,AC50,[2]; [8],"7.76 µM [falling, partial curve]"
same,AC50,[2]; measured here: PEO4 viability,"11 µM [falling, partial curve]"
O=C(Cc1cccc(OC(F)(F)F)c1)Nc1ccc(CCCCc2nnc(NC(=O)Cc3ccccn3)s2)nn1,AC50,[1]; [7],"2.58 µM [falling, full curve, poor fit]"
same,AC50,[2]; [8],"0.436 µM [falling, full curve]"
same,AC50,[2]; measured here: PEO4 viability,"0.219 µM [falling, full curve, poor fit]"
COc1ccc2ccc(=O)oc2c1CC=C(C)C,AC50,[1]; [6],"1.15 µM [rising, full curve, poor fit]"
same,AC50,[1]; [7],"0.29 µM [rising, full curve, poor fit]"
same,z-score,"[3]; TFE3-RCC UOK109 viability, measured here: UOK109 Z-AUC",0.992
same,z-score,"[3]; TFE3-RCC viability, measured here: UOK124 Z-AUC",0.427
same,z-score,"[3]; TFE3-RCC viability, measured here: UOK145 Z-AUC",1.36
same,AC50,[3]; [9],"9.35 µM [falling, full curve]"
CCOCc1nc2c(N)nc3ccccc3c2n1CC(C)(C)O,AC50,[1]; [7],"0.145 µM [falling, partial curve, poor fit]"
same,AC50,[2]; [8],"8.71 µM [rising, partial curve, poor fit]"
CCN(CC)C(=S)S,AC50,[4],"9.99 µM [falling, partial curve, poor fit]"
same,AC50,[1]; [6],"0.0325 µM [falling, full curve, poor fit]"
same,AC50,[1]; [7],"20.5 µM [falling, partial curve, poor fit]"
CS(=O)(=O)c1cc(-c2ccccc2)cc(S(=O)(=O)c2ccc(CN)s2)c1,AC50,[1]; [6],"23 µM [falling, single point]"
same,AC50,[1]; [7],"9.16 µM [falling, single point]"
CN1C(N)=N[C@](C)(c2cc(NC(=O)c3ccc(F)cn3)ccc2F)CS1(=O)=O,AC50,[1]; [5],"20.5 µM [falling, partial curve, poor fit]"
same,AC50,[1]; [6],"25.8 µM [falling, single point]"
same,AC50,[1]; [7],"25.8 µM [falling, single point]"
CC(=O)N1c2ccc(-c3ccc(C(=O)O)cc3)cc2[C@H](Nc2ccc(Cl)cc2)C[C@@H]1C,AC50,[1]; [5],"25.8 µM [falling, single point]"
same,AC50,[1]; [6],"6.48 µM [falling, partial curve, poor fit]"
same,AC50,[2]; [8],"0.776 µM [falling, full curve]"
same,AC50,[2]; measured here: PEO4 viability,"0.174 µM [falling, full curve]"
O=C1CCc2c(ccc3ccccc23)O1,AC50,[1]; [6],"23 µM [falling, partial curve, poor fit]"
same,AC50,[1]; [7],"9.16 µM [falling, partial curve, poor fit]"
CC(C)C[C@H](NC(=O)CNC(=O)c1cc(Cl)ccc1Cl)B(O)O,AC50,[1]; [5],"0.728 µM [falling, full curve, poor fit]"
same,AC50,[1]; [6],"2.3 µM [falling, partial curve, poor fit]"
same,AC50,[1]; [7],"7.27 µM [falling, partial curve, poor fit]"
same,AC50,[2]; [8],"0.0871 µM [falling, full curve]"
same,AC50,[2]; measured here: PEO4 viability,"0.0549 µM [falling, full curve]"
same,AC50,"[3]; TFE3-RCC viability, measured here: UOK124 cell viability","0.59 µM [falling, full curve]"
same,AC50,[3]; [9],"0.132 µM [falling, full curve]"
O=C(/C=C\n1cnc(-c2cc(C(F)(F)F)cc(C(F)(F)F)c2)n1)NNc1ccccn1,AC50,[1]; [5],"25.8 µM [falling, single point]"
same,AC50,[1]; [6],"3.25 µM [falling, full curve, poor fit]"
same,AC50,[2]; [8],"0.871 µM [falling, full curve]"
same,AC50,[2]; measured here: PEO4 viability,"0.977 µM [falling, full curve]"
CCC[C@H](NC(=O)/C(C#N)=C/c1cccc(Br)n1)c1ccccc1,AC50,[1]; [5],"2.58 µM [falling, partial curve, poor fit]"
same,AC50,[1]; [7],"14.5 µM [falling, single point]"
same,AC50,[2]; [8],"4.9 µM [falling, full curve]"
same,AC50,[2]; measured here: PEO4 viability,"3.09 µM [falling, full curve]"

# An excerpt of these results, bar-delimited:
smiles | measurement | setting | value
COc1ccc2ccc(=O)oc2c1CC=C(C)C | z-score | [3]; TFE3-RCC viability, measured here: UOK145 Z-AUC | 1.36
same | AC50 | [3]; [9] | 9.35 µM [falling, full curve]
CCOCc1nc2c(N)nc3ccccc3c2n1CC(C)(C)O | AC50 | [1]; [7] | 0.145 µM [falling, partial curve, poor fit]
same | AC50 | [2]; [8] | 8.71 µM [rising, partial curve, poor fit]
